The list shows only some results of the screen, not a fair sample: it gathers tests that were run many times, whatever their T/C, doses with no T/C, and many T/C values between a quarter and a half above the control. Other doses and runs of a compound stand elsewhere. T/C: endpoint of the treated group in % of that of the vehicle group. Schedule codes are those of the source, read here as Q, the interval in days (D) or hours (H), X, the number of doses. Some doses have a count of surviving animals in place of a T/C: the source holds a T/C of zero for them, seemingly a mark for toxic or unscored doses. Some survivor counts are full or nearly so, which does not show that the dose was tolerated: survival well below the control is almost never listed, so the zero probably covers shortened survival too. Survivors were counted at the toxicity check, usually on the fifth day, unless a day is given; later deaths do not show. Some entries were tested several times; the results are listed from low to high. Where survival is the endpoint, the PubChem record calls one and a half times the control and up active, and a quarter to a half above the control has no call in these data; cut-offs in other NCI protocols can differ.

Drawing on PubChem BioAssay AID270 (DTP/NCI, 2004), this text covers T/C and survivor count for 17 compounds.

The test system of this assay is BDF1 mice, s.c. Lewis lung carcinoma, T/C %. Briefly: NCI In Vivo Anticancer Drug Screen. Data for tumor model Lewis Lung Carcinoma (subcutaneous) in B6D2F1 (BDF1) mice. The method in brief:
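Antitumor effect in vivo is scored from survival or tumor burden, reported as treated relative to vehicle controls.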

[1] abbreviates: T/C endpoint: median survival time, dose: 75.0 mg/kg/injection, schedule: Q01DX009 (ip), vehicle: Klucel (hydroxypropylcellulose) (HPC), higher T/C = longer survival.

For `N=C(N)c1ccc(OCCCOc2ccc(C(=N)N)cc2Br)c(Br)c1`, the T/C (T/C endpoint: median survival time, dose: 12.5 mg/kg/injection, schedule: Q01DX009 (ip), vehicle: saline, higher T/C = longer survival) was 125 % of control. Further, the survivor count runs as follows: (T/C endpoint: median survival time, dose: 25.0 mg/kg/injection, schedule: Q01DX009 (ip), vehicle: saline, higher T/C = longer survival) 10 of 10; (T/C endpoint: median survival time, dose: 50.0 mg/kg/injection, schedule: Q01DX009 (ip), vehicle: saline, higher T/C = longer survival) 3 of 10.
Turning to `S=C([S][Sn]([c]1ccccc1)([c]1ccccc1)[c]1ccccc1)N1CCCCC1`, the survivor count (T/C endpoint: median survival time, dose: 6.25 mg/kg/injection, schedule: Q01DX009 (ip), vehicle: saline with Tween-80, higher T/C = longer survival) was 10 of 10.
`COC12C(COC(N)=O)C3=C(C(=O)C(C)=C(N)C3=O)N1CC1C2N1C` (stereo not drawn): the survivor count was 8 of 10 (T/C endpoint: median survival time, dose: 8.0 mg/kg/injection, schedule: Q01DX011 (ip), vehicle: other, higher T/C = longer survival); 3 of 10 (T/C endpoint: median survival time, dose: 16.0 mg/kg/injection, schedule: Q01DX011 (ip), vehicle: other, higher T/C = longer survival); 0 of 10 (T/C endpoint: median survival time, dose: 32.0 mg/kg/injection, schedule: Q01DX011 (ip), vehicle: other, higher T/C = longer survival).
For `O=c1cnn(C2OC(CO)C(O)C2O)c(=O)[nH]1` (stereo not drawn), the T/C runs as follows: under setting [1], 130 % of control; (T/C endpoint: median survival time, dose: 300.0 mg/kg/injection, schedule: Q01DX009 (ip), vehicle: Klucel (hydroxypropylcellulose) (HPC), higher T/C = longer survival) 142 % of control. Under “T/C endpoint: median survival time, dose: 1200.0 mg/kg/injection, schedule: Q01DX009 (ip), vehicle: Klucel (hydroxypropylcellulose) (HPC), higher T/C = longer survival”, the survivor count is given as 9 of 10.
On to `c1ccc(OP(Oc2ccccc2)Oc2ccccc2)cc1`, for which the survivor count (T/C endpoint: mean tumor weight, dose: 125.0 mg/kg/injection, schedule: Q01DX011 (ip), vehicle: other, higher T/C = larger tumour) is 0 of 6; the survivor count (T/C endpoint: mean tumor weight, dose: 250.0 mg/kg/injection, schedule: Q01DX011 (ip), vehicle: other, higher T/C = larger tumour) is reported as 0 of 6; the survivor count (T/C endpoint: mean tumor weight, dose: 500.0 mg/kg/injection, schedule: Q01DX011 (ip), vehicle: other, higher T/C = larger tumour) is reported as 0 of 6.
For `IP(c1ccccc1)(c1ccccc1)(c1ccccc1)N1C2CCCCC21` (stereo not drawn), the survivor count is, setting by setting: (T/C endpoint: median survival time, dose: 0.07 mg/kg/injection, schedule: Q01DX009 (ip), vehicle: Klucel (hydroxypropylcellulose) (HPC), higher T/C = longer survival) 9 of 10; (T/C endpoint: median survival time, dose: 0.15 mg/kg/injection, schedule: Q01DX009 (ip), vehicle: Klucel (hydroxypropylcellulose) (HPC), higher T/C = longer survival) 10 of 10; (T/C endpoint: median survival time, dose: 1.2 mg/kg/injection, schedule: Q01DX009 (ip), vehicle: Klucel (hydroxypropylcellulose) (HPC), higher T/C = longer survival) 9 of 10.
Consider `O=NN(CCCl)C(=O)NCCCl`, for which the survivor count is 0 of 6 (T/C endpoint: mean tumor weight, dose: 25.0 mg/kg/injection, schedule: Q01DX011 (ip), vehicle: saline, higher T/C = larger tumour); 0 of 6 (T/C endpoint: mean tumor weight, dose: 50.0 mg/kg/injection, schedule: Q01DX011 (ip), vehicle: saline, higher T/C = larger tumour); 10 of 10 (T/C endpoint: median survival time, dose: 2.0 mg/kg/injection, schedule: Q08HX024 (ip), vehicle: Klucel (hydroxypropylcellulose) (HPC), higher T/C = longer survival); 9 of 10 (T/C endpoint: median survival time, dose: 4.0 mg/kg/injection, schedule: Q08HX024 (ip), vehicle: Klucel (hydroxypropylcellulose) (HPC), higher T/C = longer survival); 8 of 10 (T/C endpoint: median survival time, dose: 8.0 mg/kg/injection, schedule: Q08HX024 (ip), vehicle: Klucel (hydroxypropylcellulose) (HPC), higher T/C = longer survival); 10 of 10 (T/C endpoint: median survival time, dose: 54.0 mg/kg/injection, schedule: Q01DX001 (ip), vehicle: Klucel (hydroxypropylcellulose) (HPC), higher T/C = longer survival). Further, the survivor count reads like this: (T/C endpoint: median survival time, dose: 80.0 mg/kg/injection, schedule: Q01DX001 (ip), vehicle: saline with Tween-80, higher T/C = longer survival) 9 of 10 and 10 of 10; (T/C endpoint: median survival time, dose: 108.0 mg/kg/injection, schedule: Q01DX001 (ip), vehicle: Klucel (hydroxypropylcellulose) (HPC), higher T/C = longer survival) 10 of 10; (T/C endpoint: median survival time, dose: 160.0 mg/kg/injection, schedule: Q01DX001 (ip), vehicle: Klucel (hydroxypropylcellulose) (HPC), higher T/C = longer survival) 6 of 10; (T/C endpoint: median survival time, dose: 160.0 mg/kg/injection, schedule: Q01DX001 (ip), vehicle: saline with Tween-80, higher T/C = longer survival) 0 of 10 and 6 of 10. Also, the T/C by setting is: (T/C endpoint: median survival time, dose: 4.4 mg/kg/injection, schedule: Q01DX005 (ip), vehicle: saline + alcohol, evaluated on day 7, higher T/C = longer survival) 141 % of control; (T/C endpoint: median survival time, dose: 4.4 mg/kg/injection, schedule: Q01DX005 (ip), vehicle: saline + alcohol, evaluated on day 15, higher T/C = longer survival) 146 % of control; (T/C endpoint: median survival time, dose: 6.5 mg/kg/injection, schedule: Q01DX001 (ip), vehicle: saline + alcohol, higher T/C = longer survival) 126 % of control; (T/C endpoint: median survival time, dose: 6.7 mg/kg/injection, schedule: Q01DX005 (ip), vehicle: saline + alcohol, higher T/C = longer survival) 134 % of control; (T/C endpoint: median survival time, dose: 6.75 mg/kg/injection, schedule: Q01DX001 (ip), vehicle: Klucel (hydroxypropylcellulose) (HPC), higher T/C = longer survival) 141 % of control; (T/C endpoint: median survival time, dose: 20.0 mg/kg/injection, schedule: Q01DX001 (ip), vehicle: saline + alcohol, higher T/C = longer survival) 136 % of control. For the same compound, the T/C (T/C endpoint: median survival time, dose: 40.0 mg/kg/injection, schedule: Q01DX001 (ip), vehicle: saline with Tween-80, higher T/C = longer survival) was 139 % of control.
On to `CCn1cnc2c(=S)nc(N)[nH]c21`, for which the survivor count is 0 of 6 (T/C endpoint: mean tumor weight, dose: 60.0 mg/kg/injection, schedule: Q01DX011 (ip), vehicle: other, higher T/C = larger tumour); 0 of 6 (T/C endpoint: mean tumor weight, dose: 90.0 mg/kg/injection, schedule: Q01DX011 (ip), vehicle: other, higher T/C = larger tumour); 0 of 6 (T/C endpoint: mean tumor weight, dose: 120.0 mg/kg/injection, schedule: Q01DX011 (ip), vehicle: other, higher T/C = larger tumour).
Turning to `CCOP(=O)(N1CC1(C)C)N1CC1(C)C` (stereo not drawn), the survivor count (T/C endpoint: median survival time, dose: 120.0 mg/kg/injection, schedule: Q01DX009 (ip), vehicle: saline, higher T/C = longer survival) is 10 of 10.
In the case of `COc1cc(NS(C)(=O)=O)ccc1Nc1c2cccc(C)c2nc2c(C)cccc12`, the survivor count (T/C endpoint: median survival time, dose: 25.0 mg/kg/injection, schedule: Q01DX011 (ip), vehicle: saline, higher T/C = longer survival) is given as 10 of 10 and the survivor count (T/C endpoint: median survival time, dose: 50.0 mg/kg/injection, schedule: Q01DX011 (ip), vehicle: saline, higher T/C = longer survival) was 10 of 10. The T/C by setting is: (T/C endpoint: median tumor weight (est.), dose: 6.25 mg/kg/injection, schedule: Q01DX011 (ip), vehicle: saline, evaluated on day 12, higher T/C = larger tumour) 137 % of control; (T/C endpoint: median tumor weight (est.), dose: 12.5 mg/kg/injection, schedule: Q01DX011 (ip), vehicle: saline, evaluated on day 12, higher T/C = larger tumour) 136 % of control.
Turning to `C[C@H]1C[C@H]2[C@@H]3CC[C@](O)(C(=O)CO)[C@@]3(C)C[C@H](O)[C@]2(F)[C@@]2(C)C=CC(=O)C=C12`, the survivor count (T/C endpoint: mean tumor weight, dose: 60.0 mg/kg/injection, schedule: Q01DX011 (sc), vehicle: steroid suspending solution, higher T/C = larger tumour) is recorded as 3 of 6.
As to `c1cc2n(n1)CCN2`, the survivor count is given as 2 of 6 (T/C endpoint: mean tumor weight (est.), dose: 800.0 mg/kg/injection, schedule: Q04DX003 (ip), vehicle: saline, higher T/C = larger tumour); 6 of 6 (T/C endpoint: median survival time, dose: 200.0 mg/kg/injection, schedule: Q04DX003 (ip), vehicle: saline, higher T/C = longer survival); 0 of 6 (T/C endpoint: median survival time, dose: 400.0 mg/kg/injection, schedule: Q01DX009 (ip), vehicle: saline, higher T/C = longer survival); 2 of 6 (T/C endpoint: median survival time, dose: 800.0 mg/kg/injection, schedule: Q04DX003 (ip), vehicle: saline, higher T/C = longer survival).
Take `Nc1ccc2ccccc2c1N=Nc1ccccc1`: the survivor count is on record as 2 of 6 (T/C endpoint: mean tumor weight, dose: 750.0 mg/kg/injection, schedule: Q01DX011 (ip), vehicle: other, higher T/C = larger tumour) and 0 of 6 (T/C endpoint: mean tumor weight, dose: 1000.0 mg/kg/injection, schedule: Q01DX011 (ip), vehicle: other, higher T/C = larger tumour).
For `O=NN(CCCl)C(=O)Nc1ccc(Br)cc1`, the survivor count is listed as 10 of 10 (T/C endpoint: median survival time, dose: 18.75 mg/kg/injection, schedule: Q01DX009 (ip), vehicle: Klucel (hydroxypropylcellulose) (HPC), higher T/C = longer survival); 9 of 10 (T/C endpoint: median survival time, dose: 37.5 mg/kg/injection, schedule: Q01DX009 (ip), vehicle: Klucel (hydroxypropylcellulose) (HPC), higher T/C = longer survival); 10 of 10 under setting [1].
In the case of `[I][Hg][CH2]C1OCCOC1[CH2][Hg][I]` (stereo not drawn), the survivor count (T/C endpoint: mean tumor weight, dose: 150.0 mg/kg/injection, schedule: Q01DX011 (ip), vehicle: saline, higher T/C = larger tumour) is 3 of 6.
`COC1CCC(NC(=O)N(CCCl)N=O)CC1` (stereo not drawn): the T/C is 129 % of control (T/C endpoint: median survival time, dose: 25.0 mg/kg/injection, schedule: Q01DX001 (ip), vehicle: saline with Tween-80, higher T/C = longer survival); 128 % of control (T/C endpoint: median survival time, dose: 37.0 mg/kg/injection, schedule: Q01DX001 (ip), vehicle: saline with Tween-80, higher T/C = longer survival); 140 % of control (T/C endpoint: median survival time, dose: 56.0 mg/kg/injection, schedule: Q01DX001 (ip), vehicle: saline with Tween-80, higher T/C = longer survival).
As to `C[n+]1ccc(Nc2ccc(NC(=O)c3ccc(Nc4cc[n+](C)c5ccc(N)cc45)cc3)cc2)cc1`, the T/C is 130 % of control (T/C endpoint: median survival time, dose: 2.0 mg/kg/injection, schedule: Q01DX009 (ip), vehicle: Klucel (hydroxypropylcellulose) (HPC), higher T/C = longer survival); 144 % of control (T/C endpoint: median survival time, dose: 4.0 mg/kg/injection, schedule: Q01DX009 (ip), vehicle: Klucel (hydroxypropylcellulose) (HPC), higher T/C = longer survival); 138 % of control (T/C endpoint: median survival time, dose: 16.0 mg/kg/injection, schedule: Q01DX009 (ip), vehicle: Klucel (hydroxypropylcellulose) (HPC), higher T/C = longer survival).
